Source: doi:10.1371/journal.pone.0140310, primary screening data, rounded.

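The test systems are human melanoma cell lines, treated with two drugs together for 72 h and then stained and imaged. Values are the number of DAPI-stained nuclei as a percentage of the DMSO control: 100 is no effect, lower means fewer cells. Concentrations were fixed for each drug; these are the higher of two levels. No replicate spread is given; individual values may be noisy.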 An unselected part of the screen is shown. An entry leaves out what has no value listed here. A dash means that no value is listed here.

Drugs:
everolimus, 0.1 µM: CO[C@H]1C[C@@H]2CC[C@@H](C)[C@@](O)(O2)C(=O)C(=O)N2CCCC[C@H]2C(=O)O[C@H]([C@H](C)C[C@@H]2CC[C@@H](OCCO)[C@H](OC)C2)CC(=O)[C@H](C)/C=C(\C)[C@@H](O)[C@@H](OC)C(=O)[C@H](C)C[C@H](C)/C=C/C=C/C=C/1C
pioglitazone, 10 µM: CCc1ccc(CCOc2ccc(CC3SC(=O)NC3=O)cc2)nc1 (stereo not drawn)
NVP-BEZ235, 0.02 µM: Cn1c(=O)n(-c2ccc(C(C)(C)C#N)cc2)c2c3cc(-c4cnc5ccccc5c4)ccc3ncc21
tipifarnib, 0.05 µM: Cn1cncc1[C@@](N)(c1ccc(Cl)cc1)c1ccc2c(c1)c(-c1cccc(Cl)c1)cc(=O)n2C
BMS-536924, 1 µM: Cc1cc(N2CCOCC2)cc2[nH]c(-c3c(NC[C@@H](O)c4cccc(Cl)c4)cc[nH]c3=O)nc12
perifosine, 2 µM: CCCCCCCCCCCCCCCCCCOP(=O)([O-])OC1CC[N+](C)(C)CC1
RKI-983, 2 µM: C[C@@H](N)c1ccc(C(=O)Nc2ccnc3[nH]ccc23)cc1
tanespimycin, 0.01 µM: C=CCNC1=C2C[C@@H](C)C[C@H](OC)[C@H](O)[C@@H](C)/C=C(\C)[C@H](OC(N)=O)[C@@H](OC)/C=C\C=C(/C)C(=O)NC(=CC1=O)C2=O
TCS401, 8.33 µM: O=C(O)C(=O)Nc1sc2c(c1C(=O)O)CCNC2
vismodegib, 5 µM: CS(=O)(=O)c1ccc(C(=O)Nc2ccc(Cl)c(-c3ccccn3)c2)c(Cl)c1
PD173074, 0.5 µM: CCN(CC)CCCCNc1ncc2cc(-c3cc(OC)cc(OC)c3)c(NC(=O)NC(C)(C)C)nc2n1
CHIR-265, 0.4 µM: Cn1c(Nc2ccc(C(F)(F)F)cc2)nc2cc(Oc3ccnc(-c4ncc(C(F)(F)F)[nH]4)c3)ccc21
palbociclib, 0.2 µM: CC(=O)c1c(C)c2cnc(Nc3ccc(N4CCNCC4)cn3)nc2n(C2CCCC2)c1=O
embelin, 6 µM: CCCCCCCCCCCC1=C(O)C(=O)C=C(O)C1=O
AS-252424, 5 µM: O=C1NC(=O)/C(=C/c2ccc(-c3ccc(F)cc3O)o2)S1
T0901317, 7 µM: O=S(=O)(c1ccccc1)N(CC(F)(F)F)c1ccc(C(O)(C(F)(F)F)C(F)(F)F)cc1
BI-D1870, 1 µM: CC(C)CCN1c2nc(Nc3cc(F)c(O)c(F)c3)ncc2N(C)C(=O)C1C (stereo not drawn)
SU6656, 2 µM: CN(C)S(=O)(=O)c1ccc2c(c1)/C(=C/c1cc3c([nH]1)CCCC3)C(=O)N2
GW9662, 10 µM: O=C(Nc1ccccc1)c1cc([N+](=O)[O-])ccc1Cl
PF-04217903, 5 µM: OCCn1cc(-c2cnc3nnn(Cc4ccc5ncccc5c4)c3n2)cn1

Drugs	A2058	501mel	A375	WM451Lu	COLO 800	C32	COLO 829	COLO 792
T0901317 + perifosine	78.8	59.3	93.4	85.6	91.3	78.1	74.4	83.9
RKI-983 + GW9662	81.5	136	128	98.7	57.0	73.6	57.5	100
BI-D1870 + RKI-983	63.8	91.6	75.5	55.5	48.0	88.4	106	75.2
embelin + perifosine	97.4	69.3	102	88.3	84.0	108	79.9	83.1
RKI-983 + pioglitazone	78.5	99.1	91.0	95.9	110	70.3	83.6	82.6
PF-04217903 + RKI-983	81.4	-	92.8	-	72.5	85.9	90.6	60.0
BMS-536924 + RKI-983	51.6	-	112	62.7	31.9	59.9	109	23.2
perifosine + NVP-BEZ235	63.4	-	80.6	76.6	118	79.7	98.1	59.8
palbociclib + RKI-983	60.8	-	74.6	44.8	73.3	61.1	73.2	38.9
PD173074 + RKI-983	62.1	88.3	104	84.0	66.3	74.1	71.5	58.4
CHIR-265 + RKI-983	55.6	-	105	54.8	61.8	72.6	74.0	19.6
RKI-983 + NVP-BEZ235	40.5	-	118	43.7	70.1	78.8	68.9	44.2
T0901317 + RKI-983	58.8	63.6	82.4	86.4	73.1	73.5	61.3	58.3
RKI-983 + vismodegib	56.2	-	117	78.6	64.1	73.4	72.7	56.0
BMS-536924 + perifosine	102	-	88.0	-	39.3	114	100	86.0
SU6656 + RKI-983	38.3	-	99.9	45.3	47.9	65.9	64.2	34.8
GW9662 + perifosine	84.3	71.6	103	87.7	51.1	92.3	47.7	101
everolimus + RKI-983	47.3	-	89.9	65.4	79.5	80.2	66.0	43.5
BI-D1870 + perifosine	106	76.7	74.6	111	80.5	104	113	90.1
AS-252424 + RKI-983	61.8	105	111	93.0	121	65.7	80.8	74.0
embelin + RKI-983	62.0	105	114	85.9	109	79.5	77.2	64.3
RKI-983 + TCS401	81.1	107	117	101	94.8	88.7	88.4	90.6
tipifarnib + RKI-983	62.4	-	92.6	-	111	74.0	71.3	78.2
RKI-983 + tanespimycin	50.3	-	89.3	47.9	96.5	47.4	76.7	75.8
vismodegib + perifosine	81.1	-	80.4	78.0	53.7	91.7	92.3	93.2

Some entries from above, unchanged:

* AS-252424 + RKI-983 | A2058: 61.8; 501mel: 105; A375: 111; WM451Lu: 93.0; COLO 800: 121; C32: 65.7; COLO 829: 80.8; COLO 792: 74.0
* BI-D1870 + perifosine | A2058: 106; 501mel: 76.7; A375: 74.6; WM451Lu: 111; COLO 800: 80.5; C32: 104; COLO 829: 113; COLO 792: 90.1